# In PubChem BioAssay AID624291 (National Center for Advancing Translational Sciences (NCATS), 2012):
# The whole screen tested about 350,000 compounds, of which about 220 (0.063%) were called active. The inconclusive results got no clear call from the source; some entries with a clear call stand among them for comparison. Calls follow the shape of the dose curve; as a rule, active = well fitted activation curve with a large enough effect; inconclusive = small, poorly fitted or top-dose-only effect; inactive = no such curve, though single readings can be large or run the other way. A potency beside an inconclusive call is a rough fit, not a confirmed value.
# Assay: qHTS for Activators of Integrin-Mediated Alleviation for Muscular Dystrophy; also: nearly all actives have a fitted effect of over 60% in size;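 as to activation: 100% = response of the positive control SU9516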
# Details: alpha7betagal myoblasts, beta-gal FDG fluorescence, 48 h; activation: at 38.3 µM (top of the series)
# How it was run: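 Alpha7betagal+/- myoblasts (passage 13) were plated 16-24 hr, then exposed to compounds (1:260 dilution of DMSO stock) for 48 hours at 37C. After MPER lysis, β-galactosidase reporter activity was read as FDG fluorescence (ex 480/em 540) after 30 minutes.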
# Potency is read from the fitted curve at half-maximal effect.
Compound,Potency,activation
O=C(Nc1nc(-c2cc(F)ccc2F)cs1)C1=NN(c2ccccc2)C(=O)CC1,"inconclusive: 0.501 µM [activator, full curve, poor fit]",–
COc1cc(NC(=O)c2cccc([N+](=O)[O-])c2)ccc1NC(=O)c1ccco1,"inconclusive: 22.4 µM [activator, single point]",–
O=c1oc2ccccc2c(O)c1Cc1cc(Cl)c2cccnc2c1O,inactive,–
Fc1ccc(NC2=NCCCCC2)cc1,"inconclusive: 0.501 µM [activator, partial curve, poor fit]",–
CCOc1ccc(OCCSc2ccc(S(=O)(=O)N3CCN(C)CC3)cn2)cc1,"inconclusive: 3.16 µM [activator, partial curve, poor fit]",–
O=C(NNC(=S)Nc1ccc(F)cc1)c1cccc([N+](=O)[O-])c1,"inconclusive: 1.58 µM [activator, partial curve, poor fit]",–
CCCC(=O)Nc1nnc(-c2ccc3c(c2)OCCO3)o1,inactive,–
CCCCN(CCCC)S(=O)(=O)c1ccc(NC(=O)c2ccc([N+](=O)[O-])cc2Cl)cc1,"inconclusive: 10 µM [activator, partial curve, poor fit]",–
O=[N+]([O-])c1cccc(-c2n[nH]c(=S)n2Cc2ccccc2)c1,"inconclusive: 3.16 µM [activator, single point]",–
N=C(N)CCCOc1ccccc1-c1ccccc1,inactive,–
CCn1ncc(S(=O)(=O)Nc2cccnc2)c1C,"inconclusive: 2.82 µM [activator, partial curve, poor fit]",–
COC(=O)Nc1nnc(/C=C/c2ccccc2)s1,"inconclusive: 5.01 µM [activator, single point]",–
Cn1cc(C(=O)Nc2ccccn2)c(=O)c2ccccc21,"inconclusive: 14.1 µM [activator, single point]",–
CCc1ccc(C)[n+](CC(=O)c2cccs2)c1,"inconclusive: 3.55 µM [activator, single point]",–
COc1ccccc1-n1c(=S)[nH]c2c(sc(=S)n2-c2ccccc2C)c1=O,"inconclusive: 10 µM [activator, partial curve, poor fit]",–
CN(CCOC(=O)c1cccc(F)c1)Cc1ccccc1,inactive,–
COc1ccc(C(=O)NCc2nnc(SCC(=O)NC3CCCCC3)n2C)cc1,inactive,–
CC(C)CNc1c(N)c(=O)oc2ccccc12,"inconclusive: 4.47 µM [activator, partial curve, poor fit]",–
Cc1coc2c1c(C)cc1oc(=O)c(CC(=O)NCCCN3CCCC3=O)c(C)c12,inactive,–
CCOc1ccc(NC(=O)CSc2nc3cccnc3n2CCOC)cc1,inactive,–
CCC(=O)NC(=S)NNC(=O)c1ccccc1[N+](=O)[O-],inactive,–
CN(C)S(=O)(=O)c1cccc(NC(=O)COC(=O)/C=C/c2ccc3c(c2)OCO3)c1,"inconclusive: 28.2 µM [activator, single point]",–
O=C(NCc1ccc(F)cc1)C(=O)NCC1OCCCN1S(=O)(=O)c1cccs1 (stereo not given),"inconclusive: 5.01 µM [activator, partial curve, poor fit]",–
O=c1oc2ccc(C#CC3(O)CCCCC3)cc2cc1-n1cc(C2(O)CCCCC2)nn1,inactive,–
Cc1cc(C)cc(COc2ccc3c(C)c(CC(=O)O)c(=O)oc3c2C)c1,"inconclusive: 35.5 µM [activator, partial curve, poor fit]",–

Compound,Potency,activation
COc1ccccc1N1CCN(/N=C/C(Cl)=C/c2ccccc2)CC1,inactive,–
O=C(OCC(=O)N1CCOCC1)c1cccc(S(=O)(=O)N2CCCc3ccccc32)c1,"inconclusive: 28.2 µM [activator, single point]",–
Cc1ccc(NS(=O)(=O)c2cc(C(=O)NCc3ccccn3)ccc2Cl)cc1C,"inconclusive: 15.8 µM [activator, partial curve, poor fit]",–
Nc1nc(SCCO)[nH]c(=O)c1NC(=O)c1ccco1,"inconclusive: 15.8 µM [activator, single point]",–
CCn1cc(/C=N\NC(=O)c2ccc(Cl)cc2)cn1,"inconclusive: 12.6 µM [activator, single point]",–
Cc1ccc(/C=C/C(=O)Nc2cccc3cccnc23)o1,inactive,–
Nc1nc(NCc2ccccc2)n(-c2ccccc2)n1,"inconclusive: 28.2 µM [activator, single point]",–
COc1ccc(-c2nn(-c3ccccc3)cc2C(=O)O)cc1OC,inactive,–
NNC(=S)NC1CCCCCCCCCCC1,inactive,–
CC(Cc1n[nH]c(=S)o1)c1ccccc1 (stereo not given),"inconclusive: 10 µM [activator, partial curve, poor fit]",–
O=C(Nc1ccc2c(c1)Cc1ccccc1-2)c1ccco1,"inconclusive: 2 µM [activator, full curve, poor fit]",–
CC(=O)n1cc(N(C(=O)CCl)c2ccc(Cl)cc2)c2ccccc21,inactive,–
Cc1nnc(SCC(=O)NC2CCCCCC2)n1N,"inconclusive: 11.2 µM [activator, single point]",–
Cc1ccccc1CSc1nnc(-c2ccccc2)c(=O)[nH]1,"inconclusive: 5.01 µM [activator, single point]",–
Cc1ccc(OCCn2ccnc2)c(C)c1,"inconclusive: 5.01 µM [activator, single point]",–
CCN1CCN(S(=O)(=O)c2ccc(Cl)c(C(=O)NC(C)c3ccccc3Cl)c2)CC1 (stereo not given),inactive,–
N#Cc1cc([N+](=O)[O-])ccc1N1CCN(c2ccccc2O)CC1,inactive,–
COc1ccc(S(=O)(=O)NC2CCSc3ccccc32)cc1OC (stereo not given),"inconclusive: 5.01 µM [activator, single point]",–
CC(=O)c1ccc(N2CCN(C(=O)CCCn3c(=O)[nH]c4ccsc4c3=O)CC2)cc1,"inconclusive: 5.01 µM [activator, single point]",–
Cc1cccc(C)c1NC(=O)N1CC=C(n2c(=O)[nH]c3ccccc32)CC1,"inconclusive: 2 µM [activator, partial curve, poor fit]",–
COc1ccc(-c2nc(C#N)c(NCCc3ccccc3)o2)cc1OC,inactive,–
O=C(O)CSCC(=O)N1CCN(c2nc3cc(Cl)ccc3s2)CC1,"inconclusive: 1.78 µM [activator, partial curve, poor fit]",–
Cc1cc(C)c2sc(N(CCCN(C)C)C(=O)c3ccc(S(=O)(=O)N(C)Cc4ccccc4)cc3)nc2c1,inactive,–
Clc1ccccc1C1CC(c2ccccc2)=Nc2ccccc2N1 (stereo not given),–,inconclusive: -61.3% [activator]
CCC(=NN=C(CC)c1ccccc1O)c1ccccc1O,inactive,–

# Single values from the entries so far.
# COc1ccc(S(=O)(=O)NC2CCSc3ccccc32)cc1OC (stereo not given) – Potency: inconclusive: 5.01 µM [activator, single point]
# NNC(=S)NC1CCCCCCCCCCC1 – Potency: inactive
# CN(C)S(=O)(=O)c1cccc(NC(=O)COC(=O)/C=C/c2ccc3c(c2)OCO3)c1 – Potency: inconclusive: 28.2 µM [activator, single point]
# CCC(=NN=C(CC)c1ccccc1O)c1ccccc1O – Potency: inactive

# Further compounds

Compound,Potency,activation
CC(C)Oc1nc(-c2ccc(Cl)cc2)nc2ccccc12,"inconclusive: 7.94 µM [activator, partial curve, poor fit]",–
CC(NC(=O)c1cn(C)c2ccc(S(=O)(=O)N3CCCC3)cc2c1=O)c1ccccc1 (stereo not given),active: 2.82 µM,–
O=C(Nc1nnc(-c2ccc(F)cc2)o1)c1ccco1,inactive,–
Cc1nnsc1C(=O)N/N=C/c1cccc(C(F)(F)F)c1,"inconclusive: 2.82 µM [activator, full curve]",–
Cc1cccc(SCC(=O)Nc2ccccc2[N+](=O)[O-])c1,"inconclusive: 0.501 µM [activator, full curve, poor fit]",–
CC(=O)c1cccc(CN2CCN(C3CCCCC3)C(CCO)C2)c1 (stereo not given),inactive,–
COc1ccc(Nc2ncnc3ccc(C)cc23)cc1,active: 3.55 µM,–
COc1ccc(S(=O)(=O)N2CCCC2CNC(=O)C(=O)Nc2cccc(F)c2)cc1 (stereo not given),inactive,–
CC/C(=N\NC(N)=O)c1ccc(OC(F)F)cc1,"inconclusive: 1.12 µM [activator, partial curve, poor fit]",–
CCCCOc1ccc(CSCCN)cc1Cl,inactive,–
COc1cc(C(=O)Nc2c(C(=O)O)[nH]c3ccccc23)cc(OC)c1OC,"inconclusive: 28.2 µM [activator, single point]",–
Cc1cc(C)n(CC(=O)n2nc(C)cc2C)n1,inactive,–
COc1ccc(-c2cn3ccc(C)cc3n2)cc1,"inconclusive: 28.2 µM [activator, single point]",–
CC(NC1CCCCC1)C(=O)NN=C(c1ccccc1)c1ccccc1 (stereo not given),"inconclusive: 3.16 µM [activator, single point]",–
CC(=O)N1N=C(c2cccs2)CC1c1ccc(Br)cc1 (stereo not given),"inconclusive: 3.55 µM [activator, single point]",–
COc1ccc(NC(=O)c2nc[nH]c2C(=O)N[C@H](C)c2ccccc2)cc1,inactive,–
CN(NC(=O)COc1ccccc1)C1=NS(=O)(=O)c2ccccc21,"inconclusive: 28.2 µM [activator, single point]",–
COCCN(Cc1ccccc1)C(=S)Nc1ccc(Cl)cc1,inactive,–
Cc1ccc(-c2nn[nH]n2)o1,inactive,–
CCNC(=S)N/N=C/c1ccc(-c2ccccc2)o1,inactive,–
NC(=O)c1sc2nccc(Nc3ccccc3)c2c1N,"inconclusive: 3.55 µM [activator, single point]",–
Cc1ccc(CNC(=O)COC(=O)C2CCN(S(=O)(=O)c3cccs3)CC2)cc1,"inconclusive: 2.82 µM [activator, single point]",–
c1cn2c(NC3CCCC3)c(-c3ccc(N4CCOCC4)cc3)nc2cn1,inactive,–
CC(NC(=O)c1ccnn1C)C1CCCO1 (stereo not given),"inconclusive: 10 µM [activator, partial curve, poor fit]",–
CCCCN(C)Cc1c(C)[nH]c2c(ccc3ccccc32)c1=O,"inconclusive: 5.01 µM [activator, single point]",–
